From article PMC7202667, “UNBRANCHED3 Expression and Inflorescence Development is Mediated by UNBRANCHED2 and the Distal Enhancer, KRN4, in Maize”
These are yes or no findings as the source states them, for the method shown. Binding seen in cells or lysates may run through a third protein. Binding calls can cover weak binding; strength is not graded here. Tags and fused reporters may be left off the sequences shown.

Tests used:
[1] = target: T1, OCS-binding factor OBF1 fused to the N-terminal domain of firefly luciferase (maize) (UniProt P24068); assay: split reporter; firefly luciferase complementation imaging; NLUC and CLUC fusions co-infiltrated by Agrobacterium GV3101 into N. benthamiana leaves, 48 h, abaxial epidermis coated with 1 mM luciferin, LUC signal imaged; three empty-vector control combinations on each leaf
T1 sequence: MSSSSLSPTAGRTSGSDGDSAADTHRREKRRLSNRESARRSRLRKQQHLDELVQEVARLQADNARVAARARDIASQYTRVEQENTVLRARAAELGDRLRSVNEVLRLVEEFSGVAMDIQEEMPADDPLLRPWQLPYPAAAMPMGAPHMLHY

[2] = target: UNBRANCHED2 (UB2) fused to the N-terminal domain of firefly luciferase (maize (Zea mays L.)); assay: as above

Question: With “OCS-binding factor OBF4 fused to the C-terminal domain of firefly luciferase (maize)” as the molecule, how does the binding [1] read?
Answer: binds

B1: OCS-binding factor OBF1 fused to the C-terminal domain of firefly luciferase (protein, UniProt P24068 1-151)
chain: MSSSSLSPTAGRTSGSDGDSAADTHRREKRRLSNRESARRSRLRKQQHLDELVQEVARLQADNARVAARARDIASQYTRVEQENTVLRARAAELGDRLRSVNEVLRLVEEFSGVAMDIQEEMPADDPLLRPWQLPYPAAAMPMGAPHMLHY
Question: For B1, which binding [2] is on record?
Answer: binds weakly
